Assay: general procedure: solution-phase peptide synthesis; HATU/DIEA
Conditions: coupling step, HCl salt

Boc-Val-Dil-Dap-Phe-azidopropylsulfonamide (Ex. 3 step 5)
step yield: 65% yield
